In PubChem BioAssay AID1347076 (National Center for Advancing Translational Sciences (NCATS), 2019):
The whole screen tested about 400,000 compounds, of which about 13,000 (3.2%) were called active. Inconclusive means that the source gave no clear call. Such entries were picked first, then a sample of the others. The call rests on the fitted dose curve; in most records, active means well fitted cell-killing curve with a large enough effect; inconclusive means small, poorly fitted or top-dose-only effect, or effect the other way; inactive means flat fitted curve, though single readings scatter. Potencies beside an inconclusive call are fits to weak or partial responses and may not hold up.

Assay: qHTS assay for MDR1-selective chemotherapeutics: Primary screen using the drug-selected MDR subline cells KB-V1; further: nearly all actives have a fitted effect of over 60% in size
Details: KB-V1 MDR cells viability, CellTiter-Glo, 72 h; series mostly up to 46.1 µM
In short: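 Drug-selected KB-V1 cells, grown in DMEM lacking phenol red with 10% FBS, receive compound titrations; after three days at 37 degrees C, surviving cell ATP is quantified by CellTiter-Glo luminescence and responses normalized and curve-fitted.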
Potency means the concentration at half of the fitted maximal effect.

Structure (SMILES) | Potency
COc1ccc2c(c1)[nH]c1c(=O)n(CCC3=CCCCC3)cnc12 | inactive
CC1CCCN(CCCNC(=O)Cn2ncc3c([nH]c4ccccc43)c2=O)C1 (stereo not drawn) | inconclusive: 20.6 µM [rising, single point]
Cc1ccccc1CNc1ncnc2cc(Cl)ccc12 | inactive
Cc1cc(C(=O)Nc2sc3c(c2C#N)CCC(C)C3)no1 (stereo not drawn) | active: 11.6 µM
CCC(CC)NC(=O)c1nn(Cc2ccccc2)c(=O)c2ccccc12 | inconclusive: 5.17 µM [cytotoxic, partial curve]
COc1ccc(CCNc2oc(COc3ccccc3F)nc2C#N)cc1 | inactive
Cc1cc(C)cc(N(CCC#N)C(=O)COC(=O)c2nc3nc(C)cc(C)n3n2)c1 | inactive
COc1ccc(NC(=S)NCCC(c2ccccc2)c2ccccc2)c(OC)c1 | inconclusive: 22.4 µM [cytotoxic, single point]
CCOc1ccc(N2C(=O)CC(Sc3ccccc3C(=O)O)C2=O)c([N+](=O)[O-])c1 (stereo not drawn) | inconclusive: 29.1 µM [cytotoxic, single point]
CCOc1ccc(CCN2C(=O)C(=O)N([C@@H](CC(C)C)CN3CCC[C@@H]3CN3C(=O)C(=O)NC[C@@H]3Cc3ccccc3)C[C@@H]2Cc2ccc(O)cc2)cc1 | inactive
CCCC(=O)NC(=S)Nc1ccc(S(=O)(=O)Nc2ccc(OCC)cc2)cc1 | inconclusive: 16.4 µM [cytotoxic, single point]
COc1ccc(CNC(=O)c2c(C)nc3ccccn23)cc1 | inconclusive: 10.3 µM [cytotoxic, partial curve, poor fit]
CCOC(=O)Cc1ccc(NC(=O)N(Cc2ccc(CC)cc2)Cc2cn[nH]c2-c2ccc(OC)cc2)cc1 | inconclusive: 29.1 µM [cytotoxic, single point]
COCCCNC(=O)CSC1=Nc2ccccc2C2=NC(CCC(=O)NCc3ccc(OC)cc3)C(=O)N12 (stereo not drawn) | inconclusive: 29.1 µM [rising, single point]
CC1NC(C)(C)Cc2c1ccc1ccccc21 (stereo not drawn) | inconclusive: 29.1 µM [cytotoxic, partial curve, poor fit]
O=C(CN1C(=O)NC2(CCc3ccccc3C2)C1=O)Nc1ccc(Cl)cc1F (stereo not drawn) | inconclusive: 29.1 µM [cytotoxic, single point]
CC(C)(C)C(=O)Nc1ccccc1C(=O)OCc1cc(=O)n2ccsc2n1 | inconclusive: 13 µM [rising, partial curve, poor fit]
CCc1ccc(OCCn2c(C3CC(=O)N(Cc4ccc(F)cc4)C3)nc3ccccc32)cc1 (stereo not drawn) | inactive
COCc1nnc(NC(=O)c2sc3ccccc3c2Cl)s1 | inconclusive: 20.6 µM [cytotoxic, partial curve, poor fit]
COc1ccc(-c2cc(C(=O)N(C)CCc3ccc(OC)c(OC)c3)c3ccccc3n2)cc1 | inconclusive: 14.6 µM [cytotoxic, single point]
CCCCCCCCCCCCCCCC[n+]1ccc(C)cc1 | inconclusive: 9.2 µM [cytotoxic, partial curve]
Cc1ccc(S(=O)(=O)N2CCN(C(=O)c3sccc3-c3ccccc3)CC2)cc1 | inconclusive: 16.4 µM [cytotoxic, partial curve, poor fit]

Structure (SMILES) | Potency
CS(=O)c1ccccc1-c1nc(-c2cc(C(F)(F)F)cc(C(F)(F)F)c2)no1 (stereo not drawn) | inconclusive: 18.4 µM [cytotoxic, partial curve]
CCS(=O)(=O)c1nc(S(=O)(=O)c2ccc(C)cc2)c(NCCCN2CCCC2=O)s1 | inconclusive: 29.1 µM [rising, partial curve, poor fit]
Cc1cc(S(=O)(=O)N2CCOCC2)ccc1OCC(=O)NCCCn1ccnc1 | inconclusive: 18.4 µM [rising, partial curve, poor fit]
Cc1ccc(-n2c(COCC(=O)O)nc3cccnc32)cc1 | inactive
O=C(Nc1ccccc1)c1ccc(CSc2ncccn2)cc1 | inactive
CCc1cc([N+](=O)[O-])cc(CC)c1N | inconclusive: 29.1 µM [rising, single point]
CN(C)c1ccc(/C=C/c2c(Cl)cnc3ccccc23)cc1 | inconclusive: 29.1 µM [cytotoxic, single point]
CCCCNC(C(=O)Nc1cccc(S(=O)(=O)N2CCOCC2)c1)c1ccccc1 (stereo not drawn) | inconclusive: 23.1 µM [cytotoxic, partial curve, poor fit]
CCCCN(C)CCn1c(=S)[nH]c2ccc(N3CCOCC3)cc2c1=O | inconclusive: 16.4 µM [cytotoxic, partial curve, poor fit]
N#CC(C#N)=C1NC2(CCCC2)Cc2ccccc21 | inconclusive: 7.31 µM [cytotoxic, partial curve, poor fit]
COc1cc2c(C(=O)N3CCN(C)CC3)c(CSc3ccccc3)n(C)c2cc1Br | inconclusive: 4.11 µM [cytotoxic, full curve, poor fit]
Cc1ccc(C(NC(=O)c2ccccc2)C(Cl)(Cl)Cl)cc1 (stereo not drawn) | inconclusive: 13 µM [cytotoxic, partial curve, poor fit]
COc1ccccc1Nc1nc(N)nc(CN2CCc3ccccc3C2)n1 | inactive
O=C(Nc1ccc(Br)cc1)C1OCCc2ccccc21 (stereo not drawn) | inactive
CC(C)(C)C(=O)N1CCN(CCN2C(=O)c3cccc4cccc(c34)C2=O)CC1 | inactive
CN(CC(=O)Nc1ccc(Cl)cc1)CC(=O)N1CCc2ccccc21 | inactive
C#CCN1C=C(C(=O)OCC)C(C)N(Cc2ccccc2I)S1(=O)=O (stereo not drawn) | inactive
CCOc1ccc(N(CC(=O)NCc2ccc(F)cc2)C(=O)c2ccco2)cc1 | active: 16.4 µM
Cc1ccc(/C=C2\SC(=S)N(CCCC(=O)Nc3cc(C)on3)C2=O)cc1 | inconclusive: 20.6 µM [rising, single point]
Cn1c(=O)c2nc(Cl)c(-c3ccccc3)nc2n(C)c1=O | inconclusive: 23.1 µM [cytotoxic, single point]
CC(C)CC(=O)Nc1nc(-c2ccc(S(=O)(=O)N3CCOCC3)cc2)cs1 | inconclusive: 8.2 µM [cytotoxic, partial curve]

Structures listed so far with four or more nitrogen atoms:
Structure (SMILES) | Potency
CC1CCCN(CCCNC(=O)Cn2ncc3c([nH]c4ccccc43)c2=O)C1 (stereo not drawn) | inconclusive: 20.6 µM [rising, single point]
Cc1cc(C)cc(N(CCC#N)C(=O)COC(=O)c2nc3nc(C)cc(C)n3n2)c1 | inactive
CCOc1ccc(CCN2C(=O)C(=O)N([C@@H](CC(C)C)CN3CCC[C@@H]3CN3C(=O)C(=O)NC[C@@H]3Cc3ccccc3)C[C@@H]2Cc2ccc(O)cc2)cc1 | inactive
CCOC(=O)Cc1ccc(NC(=O)N(Cc2ccc(CC)cc2)Cc2cn[nH]c2-c2ccc(OC)cc2)cc1 | inconclusive: 29.1 µM [cytotoxic, single point]
COCCCNC(=O)CSC1=Nc2ccccc2C2=NC(CCC(=O)NCc3ccc(OC)cc3)C(=O)N12 (stereo not drawn) | inconclusive: 29.1 µM [rising, single point]
Cc1cc(S(=O)(=O)N2CCOCC2)ccc1OCC(=O)NCCCn1ccnc1 | inconclusive: 18.4 µM [rising, partial curve, poor fit]
CCCCN(C)CCn1c(=S)[nH]c2ccc(N3CCOCC3)cc2c1=O | inconclusive: 16.4 µM [cytotoxic, partial curve, poor fit]
COc1ccccc1Nc1nc(N)nc(CN2CCc3ccccc3C2)n1 | inactive
Cn1c(=O)c2nc(Cl)c(-c3ccccc3)nc2n(C)c1=O | inconclusive: 23.1 µM [cytotoxic, single point]
